Experimental data as given in PMC9221416.

Assays:
Test in all cases: cell aggregation assay; HEK293 cells co-expressing EGFP and Lphn3 variants mixed 1:1 with HEK293 cells co-expressing DsRed and Flrt3 or Teneurin 2; DMEM, 50 mM HEPES-NaOH pH 7.4, 10% FBS, 10 mM CaCl2, 10 mM MgCl2; 2 h under agitation at room temperature; epifluorescence microscopy, aggregation index
[1] = biological target: human Lphn3^HA/Flag D798H (human)
[2] = biological target: human Lphn3^HA/Flag S810L (human)
[3] = biological target: human Lphn3^HA/Flag K561N (human)
[4] = biological target: human Lphn3^HA/Flag A760G (human)
[5] = biological target: human Lphn3^HA/Flag (latrophilin-3, wild type) (human)
[6] = biological target: human Lphn3^HA/Flag E811Q (human)

Measured: binding

B1: membrane-anchored human Flrt3 (ligand, UniProt Q9NZU0 29-649)
chain: KSCPSVCRCDAGFIYCNDRFLTSIPTGIPEDATTLYLQNNQINNAGIPSDLKNLLKVERIYLYHNSLDEFPTNLPKYVKELHLQENNIRTITYDSLSKIPYLEELHLDDNSVSAVSIEEGAFRDSNYLRLLFLSRNHLSTIPWGLPRTIEELRLDDNRISTISSPSLQGLTSLKRLVLDGNLLNNHGLGDKVFFNLVNLTELSLVRNSLTAAPVNLPGTNLRKLYLQDNHINRVPPNAFSYLRQLYRLDMSNNNLSNLPQGIFDDLDNITQLILRNNPWYCGCKMKWVRDWLQSLPVKVNVRGLMCQAPEKVRGMAIKDLNAELFDCKDSGIVSTIQITTAIPNTVYPAQGQWPAPVTKQPDIKNPKLTKDHQTTGSPSRKTITITVKSVTSDTIHISWKLALPMTALRLSWLKLGHSPAFGSITETIVTGERSEYLVTALEPDSPYKVCMVPMETSNLYLFDETPVCIETETAPLRMYNPTTTLNREQEKEPYKNPNLPLAAIIGGAVALVTIALLALVCWYVHRNGSLFSRNCAYSKGRRRKDDYAEAGTKKDNSILEIRETSFQMLPISNEPISKEEFVIHTIFPPNGMNLYKNNHSESSSNRSYRDSGIPDSDHSHS
binds: all assays above

No constants are given. Whether binding was seen depends on the method and setting. Binding calls can cover weak binding; strength is not graded here.
